Results deposited as PubChem BioAssay AID1259308 (NCATS, 2017)
Screen: 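Knock-downs that increase output of a recombinant reporter protein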 (primary screen). Cell system: human HEK293 embryonic kidney cells stably expressing firefly luciferase (HEK-CMV-Luc2-Hygro). Knock-down reagent: single siRNA against human genes, 0.8 pmol siRNA per well. Duration: 72 h. Measurement: 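Luciferase light (ONE-Glo) measured on one replicate plate set and viability (CellTiter-Glo) on the other, scaled to a negative control siRNA, with robust z-scores and luciferase per cell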. Reading the numbers: total luciferase, z-score: higher = more reporter protein produced. Hit rule: 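An siRNA counts as active if its total luciferase robust z-score exceeds 3; genes with two or more such siRNAs out of three were retested with fresh siRNAs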. Calls: active = raised luciferase; inactive = no rise.
Shown is one part, drawn at random, of about 59,000 deposited reagents. Of all reagents, about 1,510 (2.6%) are marked active. 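Calls use total luciferase alone and ignore viability, so some active siRNAs may act by altering cell number.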 The numbers tell different reagents against one gene apart. Further read-outs or replicates are left out here.

no.	target gene	reagent	total luciferase, z-score	activity call
1	IGFL4 (IGF like family member 4)	1	0.0918	inactive
2	IGFL4 (IGF like family member 4)	2	2.36	inactive
3	IGFL4 (IGF like family member 4)	3	1.88	inactive
4	IGFL4 (IGF like family member 4)	4	-0.522	inactive
5	IGFL4 (IGF like family member 4)	5	1.37	inactive
6	IGFL4 (IGF like family member 4)	6	-0.642	inactive
7	EFL1 (elongation factor like GTPase 1)	1	0.221	inactive
8	EFL1 (elongation factor like GTPase 1)	2	1.67	inactive
9	EFL1 (elongation factor like GTPase 1)	3	-0.406	inactive
10	PRDM5 (PR/SET domain 5)	1	-0.259	inactive
11	PRDM5 (PR/SET domain 5)	2	-0.596	inactive
12	PRDM5 (PR/SET domain 5)	3	1.3	inactive
13	IL23R (interleukin 23 receptor)	1	0.771	inactive
14	IL23R (interleukin 23 receptor)	2	-0.648	inactive
15	IL23R (interleukin 23 receptor)	3	1.08	inactive
16	IL11 (interleukin 11)	1	1.38	inactive
17	IL11 (interleukin 11)	2	0.808	inactive
18	IL11 (interleukin 11)	3	-0.116	inactive
19	PSMD13 (proteasome 26S subunit, non-ATPase 13)	1	2.03	inactive
20	PSMD13 (proteasome 26S subunit, non-ATPase 13)	2	0.718	inactive
21	PSMD13 (proteasome 26S subunit, non-ATPase 13)	3	1.12	inactive
22	POLB (DNA polymerase beta)	1	-0.26	inactive
23	POLB (DNA polymerase beta)	2	-0.667	inactive
24	POLB (DNA polymerase beta)	3	-2	inactive
25	ZNF529 (zinc finger protein 529)	1	0.473	inactive
26	ZNF529 (zinc finger protein 529)	2	-0.996	inactive
27	ZNF529 (zinc finger protein 529)	3	-0.408	inactive
28	AIFM1 (apoptosis inducing factor mitochondria associated 1)	1	-0.673	inactive
29	AIFM1 (apoptosis inducing factor mitochondria associated 1)	2	-0.508	inactive
30	AIFM1 (apoptosis inducing factor mitochondria associated 1)	3	-0.499	inactive
31	PDZD9 (PDZ domain containing 9)	1	-0.902	inactive
32	PDZD9 (PDZ domain containing 9)	2	-0.365	inactive
33	PDZD9 (PDZ domain containing 9)	3	1.55	inactive
34	PPP1R12A (protein phosphatase 1 regulatory subunit 12A)	1	2.16	inactive
35	PPP1R12A (protein phosphatase 1 regulatory subunit 12A)	2	-0.517	inactive
36	PPP1R12A (protein phosphatase 1 regulatory subunit 12A)	3	1.42	inactive
37	SPATA46 (spermatogenesis associated 46)	1	2.57	inactive
38	SPATA46 (spermatogenesis associated 46)	2	0.916	inactive
39	SPATA46 (spermatogenesis associated 46)	3	-1.96	inactive
40	MED9 (mediator complex subunit 9)	1	-1.01	inactive
41	MED9 (mediator complex subunit 9)	2	-0.654	inactive
42	MED9 (mediator complex subunit 9)	3	-1.94	inactive
43	PLIN5 (perilipin 5)	1	-0.376	inactive
44	PLIN5 (perilipin 5)	2	1.28	inactive
45	PLIN5 (perilipin 5)	3	0.0862	inactive
46	XXYLT1 (xyloside xylosyltransferase 1)	1	-1.01	inactive
47	XXYLT1 (xyloside xylosyltransferase 1)	2	-0.0869	inactive
48	XXYLT1 (xyloside xylosyltransferase 1)	3	0.986	inactive
49	GAP43 (growth associated protein 43)	1	-1.6	inactive
50	GAP43 (growth associated protein 43)	2	-0.175	inactive
51	GAP43 (growth associated protein 43)	3	1.81	inactive
52	NOP2 (NOP2 nucleolar protein)	1	-1.28	inactive
53	NOP2 (NOP2 nucleolar protein)	2	-0.814	inactive
54	NOP2 (NOP2 nucleolar protein)	3	-1.69	inactive
55	RHOXF1 (Rhox homeobox family member 1)	1	1.11	inactive
56	RHOXF1 (Rhox homeobox family member 1)	2	-0.577	inactive
57	RHOXF1 (Rhox homeobox family member 1)	3	-0.73	inactive

In a second layout: 8 of the entries above
{"target gene":"PRDM5 (PR/SET domain 5)","reagent":2,"total luciferase, z-score":-0.596,"activity call":"inactive"}
{"target gene":"PRDM5 (PR/SET domain 5)","reagent":3,"total luciferase, z-score":1.3,"activity call":"inactive"}
{"target gene":"IL23R (interleukin 23 receptor)","reagent":1,"total luciferase, z-score":0.771,"activity call":"inactive"}
{"target gene":"IL23R (interleukin 23 receptor)","reagent":2,"total luciferase, z-score":-0.648,"activity call":"inactive"}
{"target gene":"IL23R (interleukin 23 receptor)","reagent":3,"total luciferase, z-score":1.08,"activity call":"inactive"}
{"target gene":"IL11 (interleukin 11)","reagent":1,"total luciferase, z-score":1.38,"activity call":"inactive"}
{"target gene":"IL11 (interleukin 11)","reagent":2,"total luciferase, z-score":0.808,"activity call":"inactive"}
{"target gene":"IL11 (interleukin 11)","reagent":3,"total luciferase, z-score":-0.116,"activity call":"inactive"}
